Values of other authors, collected in publication PMC6469618 (Environmental Science and Pollution Research International, 2019).

Test system: water louse
Conditions: naturalistic pond experiment; ref Lagesson et al. 2016; cited from earlier work

CN(C)CCOC(c1ccccc1)c1ccccc1 [diphenhydramine]
Bioconcentration in water louse compared to European perch (Perca fluviatilis): higher levels
